The other results are listed elsewhere or left out.
B1: il2ra_site2_3nfp_normal_mot_HHH_b2_05281_000000198_0001_39_56_H_._HHH_b1_07030_0001_0000100012_0000001_0 (protein)
chain: SSSSDEEEERIEELLREAKELLEEGNPEEAQRVLAEATHLIFKINNSRLFFELAELALEVHSSSS
B2: il2ra_site1_1z92_sap_8_mot_add8a691351788dd45ba4deda1838316_0001_1_000000225_0001_37_51_H_._a445c54e3280ddb545be3b99cff61ffd_0001_1_af2_0001_0000300042_0000001_ … (protein)
chain: SSSSTEDKREALELFQEANELIKEGNEEEAEELLERALRLAEEAGSRVVARSIEFALEDLESSSS
B3: il2ra_site2_3nfp_sap_21_mot_HHH_b1_06238_000000047_0001_1_16_H_._51496fa1c8d31d9133bff2649adae953_0001_0001_0000300019_0000001_0_0001_af2pred_0001_af2pred (protein)
chain: SSSSDREEEIVRRIVEELGLSEEVEKRLKRQAELALEAGFSEEEVEAALRAWALAWLEHLSSSSS
B4: il2ra_site2_2erj_normal_mot_HHH_b2_06912_000000039_0001_38_52_H_._HHH_b2_01292_0001_0000100004_0000001_0 (protein)
chain: SSSSSDKEESEKLAEEAHELILRNPERVEEIVEEFRRELEELNDPIAVRYLELVRRDVNSSSSSS
B5: il2ra_site1_2b5i_sap_9_mot_HHH_b1_06312_000000036_0001_42_56_H_._HHH_b2_08220_0001_0000100002_0000001_0_0001_af2pred_0001_af2pred (protein)
chain: SSSSDEQERINELFLEASRLALRGNPEEARELLEEALKLAEEAGDPRAREDVEKMLEALNSSSSS
B6: il2ra_site1_2b5i_sap_6_mot_HHH_b2_04910_000000118_0001_1_19_H_._HHH_b1_02251_0001_0000100002_0000001_0_0001_af2pred_dldesign_0_af2pred (protein)
chain: SSSSDPVAEIEKLLEQAKKEKDKKKVSKLLMKAYYLARKLNDPALIAKVKEVWDELEEELSSSSS
B7: il2ra_site2_2erj_normal_mot_HHH_b2_02500_af2_000000175_0001_19_35_H_._HHH_b1_03967_0001_0000300033_0000001_0 (protein)
chain: SSSSSDLLERAYELANILLHLVSRNDEERFEEISREFEEIVERLQSRSAKEVLELLEEELSSSSS
B8: il2ra_site1_1z92_sap_24_mot_HHH_b2_03833_af2_000000174_0001_41_53_H_._HHH_b1_04803_af2_0001_0000200019_0000001_1_0001_af2pred_0001_af2pred (protein)
chain: SEEEELEELLAEVAGVPPEAIERDLKRAEEHLGDPKKALRAVVQAVIALDPRFREELEELLEKVK
B9: il2ra_site1_1z92_normal_mot_HHH_b2_06572_000000077_0001_1_17_H_._HHH_b2_03912_0001_0000200056_0000001_0_af2pred_0001_af2pred (protein)
chain: SSSSEEEQEFALRVVIELAREFKLNAEDLKYLLEVALRLLEEGYSEEEIEEILHEEAEELSSSSS
B10: il2ra_site1_3nfp_sap_26_mot_HHH_b1_02637_af2_000000026_0001_1_18_H_._HHH_b1_02478_af2_0001_0000300029_0000001_0_0001 (protein)
chain: SSSSDEELQEANELAQEIMKATANGDEEEARELLRELEELAEELNTPLLRFLVEQLEENLNSSSS
B11: il2ra_site1_3nfp_sap_26_mot_HHH_b2_01680_af2_000000278_0001_1_15_H_._HHH_b1_00713_0001_0000300023_0000001_0_0001_af2pred_0001_af2pred_1 (protein)
chain: DEEEELRELVRKNPEARRLFAKLIFALAHGDEERLEKLEEEIQELIERTGDPALEAVLLLLELLR
B12: il2ra_site2_2erj_normal_mot_HHH_b1_02757_000000121_0001_41_57_H_._HHH_b2_03218_0001_0000300010_0000001_0_af2pred_0001_1_af2pred_swapped (protein)
chain: SSSSSSDAEEEVRELLEEAEKIEDIKEAMKVLQEASRIASEKDDPEAFKLVTEVFQRLSSSSSSS
B13: il2ra_site2_3nfp_normal_mot_HHH_b1_00015_000000185_0001_19_35_H_._ems_3hM_3301_0001_0000300017_0000001_0 (protein)
chain: SDKEEAHEILSRIALLAFEKNDQEAWLAVAELILLLARAEARNDEELVEEITELAKELLKEVESS
B14: il2ra_site2_2erj_sap_18_mot_HHH_b2_04662_000000013_0001_42_56_H_._HHH_b1_02138_0001_0000200008_0000001_0_0001_af2pred_0001_1_af2pred_swapped (protein)
chain: SSSSDEEELKELVERLAKELGASEEAKELAELSARNAAEAGASEEIIEAFLEALLRMAARRSSSS
B15: il2ra_site1_2b5i_sap_21_mot_HHH_b1_03854_af2_000000092_0001_42_55_H_._HHH_b1_03479_af2_0001_0000200015_0000001_0_0001_af2pred_dldesign_0_af2pred (protein)
chain: SSSSSSDAGEALRLFLEADRLWKAGKEEEAKKLLEEALKLAEKAKNRSLAKAIKYALETLSSSSS
B16: il2ra_site2_3nfp_sap_18_mot_HHH_b1_05437_000000005_0001_40_57_H_._240341e08b947b301b1390bbd516957c_0001_af2_0001_0000200005_0000001_1_0001_af2pred_0001_af2pred (protein)
chain: SSSSSSDDEELKEELEELEERGDEERLRKVVKEALQLAIELGDFQLFALALLARESLLSSSSSSS
B17: il2ra_site1_3nfp_sap_24_mot_HHH_b2_04252_000000281_0001_1_19_H_._HHH_b1_04735_af2_0001_0000200008_0000001_0_0001 (protein)
chain: SSSDHEEISEILWKALRLAWNGNFEEAQKVLEEARELAEERNDERLERRIRYDLRALERFRSSSS
B18: il2ra_site2_3nfp_sap_12_mot_HHH_b2_05540_000000122_0001_22_38_H_._4a0b58da0a66d934d1bcaa80596e03bc_0001_1_af2_0001_0000500020_0000001_0_0001 (protein)
chain: SSSSDVEELLEEIEELIKKGNLEEAEKVLREVAQVAAELGDEEAFARIADLMYELIKLEDSSSSS
B19: il2ra_site2_2erj_normal_mot_c2bf78bdce995293a161f7082e24b401_0001_af2_000000082_0001_17_32_H_._HHH_b1_05222_0001_0000200027_0000001_0 (protein)
chain: SSSSSSLEELYELANEILEALQRGDPEEVEELLREAEELARELDSPNAEEIVKWLEEHLSSSSSS

What follows are binders tested against il2ra, P01589 (assay: yeast display titration).

Apparent Kd, inactive:
B1 no binding seen, B2 no binding seen, B3 no binding seen, B4 no binding seen, B5 no binding seen, B6 no binding seen, B7 no binding seen, B8 no binding seen, B9 no binding seen, B10 no binding seen, B11 no binding seen, B12 no binding seen, B13 no binding seen, B14 no binding seen, B15 no binding seen, B16 no binding seen, B17 no binding seen, B18 no binding seen, B19 no binding seen
